{
  "sequences": {"note": "Amino acid sequences for entries named in this document (tags omitted).", "UniProt P97490": "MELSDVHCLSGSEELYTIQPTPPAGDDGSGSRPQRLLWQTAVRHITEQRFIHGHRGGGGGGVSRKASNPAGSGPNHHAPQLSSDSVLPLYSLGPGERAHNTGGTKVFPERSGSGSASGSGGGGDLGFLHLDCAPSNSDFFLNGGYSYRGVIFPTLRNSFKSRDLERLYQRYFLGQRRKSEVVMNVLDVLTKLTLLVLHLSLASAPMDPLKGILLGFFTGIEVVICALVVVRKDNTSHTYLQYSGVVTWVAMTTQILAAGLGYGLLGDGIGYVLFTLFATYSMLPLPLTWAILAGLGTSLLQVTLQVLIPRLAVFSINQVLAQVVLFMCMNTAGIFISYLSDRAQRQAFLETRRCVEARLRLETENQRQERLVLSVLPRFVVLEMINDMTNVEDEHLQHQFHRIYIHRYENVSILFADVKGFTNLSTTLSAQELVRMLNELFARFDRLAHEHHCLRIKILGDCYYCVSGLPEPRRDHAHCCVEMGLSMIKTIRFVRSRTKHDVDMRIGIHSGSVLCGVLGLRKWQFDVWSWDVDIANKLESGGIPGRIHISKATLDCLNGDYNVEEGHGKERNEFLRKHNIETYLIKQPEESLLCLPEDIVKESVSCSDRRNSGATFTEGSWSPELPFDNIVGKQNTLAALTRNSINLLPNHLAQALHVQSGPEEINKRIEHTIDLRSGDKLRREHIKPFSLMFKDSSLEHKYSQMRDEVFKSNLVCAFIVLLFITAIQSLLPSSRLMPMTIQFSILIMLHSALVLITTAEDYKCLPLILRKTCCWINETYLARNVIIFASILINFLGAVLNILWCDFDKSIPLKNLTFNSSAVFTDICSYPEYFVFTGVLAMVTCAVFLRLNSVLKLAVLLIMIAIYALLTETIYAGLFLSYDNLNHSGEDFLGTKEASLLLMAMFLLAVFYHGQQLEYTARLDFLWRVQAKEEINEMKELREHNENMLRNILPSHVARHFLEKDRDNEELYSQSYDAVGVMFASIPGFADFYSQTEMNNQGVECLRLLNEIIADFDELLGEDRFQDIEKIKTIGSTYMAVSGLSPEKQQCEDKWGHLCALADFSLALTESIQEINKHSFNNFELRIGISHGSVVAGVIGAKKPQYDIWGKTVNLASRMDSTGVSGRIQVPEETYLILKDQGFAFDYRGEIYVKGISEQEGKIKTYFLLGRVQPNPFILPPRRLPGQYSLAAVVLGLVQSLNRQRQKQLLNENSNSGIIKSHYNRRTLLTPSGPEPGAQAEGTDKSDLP"},
  "source": "paper PMC7671691",
  "target": "T1, AKAP150 (A-kinase anchoring protein 150, rodent ortholog of AKAP79) (mouse (endogenous in MIN6)) (UniProt D3YVF0)",
  "T1 sequence": "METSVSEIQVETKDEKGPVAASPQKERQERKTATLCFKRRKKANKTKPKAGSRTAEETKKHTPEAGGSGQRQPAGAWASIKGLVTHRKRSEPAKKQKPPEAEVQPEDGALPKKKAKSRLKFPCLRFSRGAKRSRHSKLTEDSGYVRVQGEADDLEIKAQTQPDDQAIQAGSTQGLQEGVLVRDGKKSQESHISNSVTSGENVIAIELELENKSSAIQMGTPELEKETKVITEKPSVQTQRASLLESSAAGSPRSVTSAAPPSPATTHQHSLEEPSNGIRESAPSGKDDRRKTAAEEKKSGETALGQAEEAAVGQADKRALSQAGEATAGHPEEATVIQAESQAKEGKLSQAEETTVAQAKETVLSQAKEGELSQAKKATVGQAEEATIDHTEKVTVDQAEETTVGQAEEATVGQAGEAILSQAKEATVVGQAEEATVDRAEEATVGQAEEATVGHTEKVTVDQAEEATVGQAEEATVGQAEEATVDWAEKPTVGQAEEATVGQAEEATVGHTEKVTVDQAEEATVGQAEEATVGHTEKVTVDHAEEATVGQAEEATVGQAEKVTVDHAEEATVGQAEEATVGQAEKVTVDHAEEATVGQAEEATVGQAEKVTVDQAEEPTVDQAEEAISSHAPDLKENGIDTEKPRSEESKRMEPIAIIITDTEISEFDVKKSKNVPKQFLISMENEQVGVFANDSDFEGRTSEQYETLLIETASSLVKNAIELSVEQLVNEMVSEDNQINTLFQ",
  "assay": "proximity ligation; in situ PLA (Duolink red kit) in fixed, permeabilised MIN6 cells; anti-AC8 and anti-AKAP150 primary antibodies conjugated with PLUS or MINUS oligos; PLA puncta per cell counted; non-transfected cells compared with cells expressing EGFP-tagged AC8 1-106",
  "note": "No constants are given. Whether binding was seen depends on the method and setting. In cells and extracts the contact can be indirect. Some binding calls cover weakened binding; strength is not graded here.",
  "data": [
    {"substance": "AC8 (Ca2+-stimulated adenylyl cyclase 8) (from UniProt P97490 1-1249) (enzyme)", "values": [
      {"measurement": "binding", "value": "binds"}
    ]}
  ]
}
